## Primary screen of a compound library

Chains of the proteins cited; added tags and fusions are not shown. Residues count along the entry.
UniProt A4I591, 1-473: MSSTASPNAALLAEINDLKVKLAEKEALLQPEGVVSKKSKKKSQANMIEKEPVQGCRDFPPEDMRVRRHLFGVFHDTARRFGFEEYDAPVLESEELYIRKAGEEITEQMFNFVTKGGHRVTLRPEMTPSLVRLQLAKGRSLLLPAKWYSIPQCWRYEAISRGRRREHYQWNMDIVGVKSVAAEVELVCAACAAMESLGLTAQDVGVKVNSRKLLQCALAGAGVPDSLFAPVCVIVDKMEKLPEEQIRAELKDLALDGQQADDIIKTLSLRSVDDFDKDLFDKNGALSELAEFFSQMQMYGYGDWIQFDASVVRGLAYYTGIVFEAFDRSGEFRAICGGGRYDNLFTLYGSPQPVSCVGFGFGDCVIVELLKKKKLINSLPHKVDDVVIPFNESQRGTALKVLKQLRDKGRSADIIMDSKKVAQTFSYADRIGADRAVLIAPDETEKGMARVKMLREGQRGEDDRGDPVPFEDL

Measurements from “University of Dundee, Small-Polar-MMV Screening Library” (2021), ChEMBL document CHEMBL3988442.

The filed quantity is “Percent Effect” (%).
The record does not define 0% and 100%; most values in the screen are far below 50% and negative numbers occur (in some assays of this library far below -100).
The compounds are a random part of those screened.

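Enzyme assay of histidyl-tRNA synthetase; the read-out is not stated. Target: Histidine-tRNA ligase, Leishmania infantum (UniProt A4I591). Compounds at 30 µM. The record gives no direction; compounds that gave an IC50 in retests scored well above the rest, so higher reads as stronger inhibition. The assay is labelled LdHisRS but filed under L. infantum. About 69,000 compounds were tested under these conditions; 0.6% (about 410) showed 50% or more at least once.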

| # | SMILES | effect |
|---|---|---|
| 1 | `CCn1cc(-c2nccnc2C2CCCN(C(C)=O)C2)cn1` (stereo not shown) | 5.674 |
| 2 | `CC(C)S(=O)(=O)NCC(Cc1cccc(F)c1)N1CCNC1=O` (stereo not shown) | 10.26 |
| 3 | `Cn1nccc1-c1nc2c(cc1C(=O)O)CCN(C(=O)C1CC1)CC2` | 0 |
| 4 | `Cc1nn(C(C)C)c2cn(CC(=O)NC3CCSCC3)nc12` | 14.16 |
| 5 | `COc1c(C)cnc(CN(C)C(=O)c2ccccc2O)c1C` | -19.83 |
| 6 | `O=C(c1cccs1)N1CC(C(=O)N2CCCC2)C2(CCOCC2)C1` (stereo not shown) | 13.89 |
| 7 | `Cc1ccc(N2CCCC(NCc3c(C)noc3C)C2)nn1` (stereo not shown) | 17.09 |
| 8 | `Cc1cccc(C)c1CCNC(=O)N1CCCC2(C1)OCCO2` | -1.333 |
| 9 | `Cc1noc([C@@H](C)NCc2ccc(F)cc2)c1C(=O)O` | 32.43 |
| 10 | `Cc1ccc(C(=O)Nc2ccc(S(=O)(=O)/N=C3\CCCN3C)cc2)s1` | 13.68 |
| 11 | `c1cnc2[nH]c(C3CCCC3)c(CN3CCCCC3)c2c1` | 5.208 |
| 12 | `COc1ccc(CN2CCCC2c2cccc(F)c2)c(OC)c1OC` (stereo not shown) | 18.48 |
| 13 | `CC(C)CN1CCn2nc(CNc3ncnc4[nH]cnc34)cc2C1` | 16.33 |
| 14 | `CCn1ccc(-c2cc(C(=O)O)n3nc(C)c(Cl)c3n2)n1` | 3.448 |
| 15 | `CC(C)c1nnc2n1CCN(C(=O)c1ccc(OCC3CC3)nc1)C2` | 19.33 |
| 16 | `Cc1ccc(CC(=O)Nc2ccc(CS(C)(=O)=O)c(F)c2)cc1` | -31.43 |
| 17 | `O=C1CC(c2ccc(F)cc2)c2snc(C(=O)O)c2N1` (stereo not shown) | 5.172 |
| 18 | `O=C(NCCc1ccccc1)N1CC[C@@H]2CNS(=O)(=O)[C@@H]2CC1` | 7.018 |
| 19 | `COCCc1ncc(CNC2(c3ccc(Cl)cc3)CC2)cn1` | 5.263 |
| 20 | `Cc1nc(C)n(C2CCCN(C(=O)c3ccc(F)c(F)c3)C2)n1` (stereo not shown) | 11.01 |
| 21 | `CCN(CCS(=O)(=O)CC)CC1CCCO1` (stereo not shown) | 7.563 |
| 22 | `Cc1cc(C)c(CNC(=O)NCC(c2ccccc2)N(C)C)c(=O)[nH]1` (stereo not shown) | 22.73 |
| 23 | `Cc1n[nH]c(C2CN(CC(=O)NCc3ccco3)CCO2)n1` (stereo not shown) | 0.9709 |
| 24 | `COc1ccc(CN2C[C@@H]3COC[C@]3(COc3cccnc3)C2)cc1` | 5.769 |
| 25 | `CC1CN(C)CCN1C(=O)NCCCn1ccnc1` (stereo not shown) | 15.38 |
| 26 | `Cc1n[nH]c(C2CN(Cc3csc(C4CC4)n3)CCO2)n1` (stereo not shown) | 2.74 |
| 27 | `CCNCCOc1ccc(-c2cc(N)nc3[nH]ccc23)cc1` | 41.77 |
| 28 | `CCc1nccc(CN2CCCC(CNC(=O)c3ccccn3)C2)n1` (stereo not shown) | 10.4 |
| 29 | `CN1CCN(c2ccncc2S(=O)(=O)N2CCCCC2)CC1` | 14.29 |
| 30 | `C[C@@H]1CN(C(=O)c2cn(CCN3CCCCC3)nn2)C[C@H](C)O1` | 1.493 |
| 31 | `CN(C)c1nccc(N(C)C2CCOCC2)n1` | 1.333 |
| 32 | `CCN(CC)C(=O)CCNC(=O)N1CCC(c2ccccc2)C1` (stereo not shown) | 9.615 |
| 33 | `CN1CC(=O)N(c2cnn(C)c2)CC12CCN(C(=O)c1ccsc1)C2` (stereo not shown) | 5.882 |
| 34 | `Cc1cccc(CN(C(=O)CS(C)(=O)=O)C(C)C)c1` | 13.43 |
| 35 | `Cc1nccnc1CCC1COCCN1C(=O)CCc1c(C)noc1C` (stereo not shown) | 8.451 |
| 36 | `CC[C@H]1N(CC2CCC2)CCC[C@]12CCC(=O)N2Cc1ccncc1` | 13.46 |
| 37 | `COc1cccc2c1OCCCN(c1nc(N)nc3c1CCNC3)C2` | 47.62 |
| 38 | `COc1ccc2c(c1)CCCN2C(=O)NCCc1cnn(C)c1` | 5.172 |
| 39 | `Cc1nc(CN2CCO[C@H]3CN(C(=O)c4cccn4C)C[C@H]32)cs1` | 10.53 |
| 40 | `CC(CS(C)(=O)=O)N(C(=O)c1ccc(Cl)s1)C1CC1` (stereo not shown) | 11.29 |
| 41 | `Cc1ncccc1Oc1cncc(C2CCCN2Cc2cncn2C)n1` (stereo not shown) | 10.34 |
| 42 | `Cc1nsc(N2CCc3sccc3C2)n1` | 13.79 |
| 43 | `CCn1cnnc1CN(C)Cc1c[nH]nc1-c1ccc(F)cc1` | 22.39 |
| 44 | `CCn1cnnc1CNC(=O)N1CCN(c2cccc(C)c2)CC1` | 13.91 |
| 45 | `COc1ccc2c(c1)C(=O)N(C)C1(CCN(C(=O)OC(C)(C)C)CC1)N2` | 7.563 |
| 46 | `Cn1c(Cn2ccnc2)nnc1C1CCCN(C2CCCCC2)C1` (stereo not shown) | 19.23 |
| 47 | `COCC1Cn2nnc(-c3cnn(C)c3)c2CN1Cc1ccc(C)o1` (stereo not shown) | 19.27 |
| 48 | `Cc1cccc(C)c1Nc1noc2c1CN(C(=O)c1ccnn1C)CC2` | 4.196 |
| 49 | `CC(C)CNC(=O)Cn1ccc2ccccc21` | 2.632 |
| 50 | `CC(C)(C)C(=O)N1CCC2(CC1)CC(Oc1ccccc1)CO2` (stereo not shown) | -2.703 |
| 51 | `Cc1nc(C)n(CC2CN(Cc3nc4ccccc4s3)CCO2)n1` (stereo not shown) | 12.28 |
| 52 | `CC1CCCCN1C(=O)Cn1cnc(C#N)n1` (stereo not shown) | 12.4 |
| 53 | `COC(=O)C1CCN(C(=O)c2ccc(N(C)S(C)(=O)=O)c(C)c2)CC1` | 11.43 |
| 54 | `CN1CCc2c(C#N)c(NCc3ccco3)n3cnnc3c2C1` | 20 |
| 55 | `N#CCCN(Cc1ccco1)C(=O)Cc1ccc(-n2cnnn2)cc1` | 8.036 |
| 56 | `COCCCNC(=O)Cc1cc(-c2ccccc2)on1` | 7.692 |
| 57 | `Cn1ccc(C(=O)N2CCCC2c2cc(CCO)[nH]n2)n1` (stereo not shown) | 2.797 |
| 58 | `CC(C)n1cc(CN2CCCN(C(=O)C(C)n3cccn3)CC2)cn1` (stereo not shown) | -8.929 |
| 59 | `O=c1cc(N2CCCC2)cnn1CCc1cccc(F)c1` | 15.05 |
| 60 | `N#Cc1cnc2cc(F)cc(F)c2c1NC1CCN(CC(N)=O)CC1` | 5.747 |
| 61 | `Cc1cnn(CC2CCCCN2Cc2cnc(C)s2)c1` (stereo not shown) | 11.01 |
| 62 | `Cc1cc(C)n(C2CCCN(C(=O)c3ccc(F)c(F)c3)C2)n1` (stereo not shown) | 17.65 |
| 63 | `OC1CCN(CCNc2ncc3c(n2)CCN3c2ccccc2)CC1` | 13.11 |
| 64 | `COCCNC(=O)Cn1c(-c2ccc(Cl)cc2)nc(C)c(CCO)c1=O` | 15.22 |
| 65 | `Cc1noc(C)c1CNC(=O)Nc1ccc(N2CCOC2=O)cc1` | 14.29 |
| 66 | `COc1ncccc1C(=O)N1CCn2c(COCC3CC3)cnc2C1C` (stereo not shown) | 3.922 |
| 67 | `CC(=O)N1CC[C@]2(O)CCN(Cc3nc(C)c[nH]3)C[C@@H]2C1` | 38.16 |
| 68 | `CCc1noc(C)c1-c1nc(Cc2cccs2)nn1C1CCN(C)CC1` | 23.02 |
| 69 | `Nc1nc(CN2CCOC(Cn3cncn3)C2)nc2ccccc12` (stereo not shown) | 0 |

The first 9 entries again:

SMILES,effect
CCn1cc(-c2nccnc2C2CCCN(C(C)=O)C2)cn1 (stereo not shown),5.674
CC(C)S(=O)(=O)NCC(Cc1cccc(F)c1)N1CCNC1=O (stereo not shown),10.26
Cn1nccc1-c1nc2c(cc1C(=O)O)CCN(C(=O)C1CC1)CC2,0
Cc1nn(C(C)C)c2cn(CC(=O)NC3CCSCC3)nc12,14.16
COc1c(C)cnc(CN(C)C(=O)c2ccccc2O)c1C,-19.83
O=C(c1cccs1)N1CC(C(=O)N2CCCC2)C2(CCOCC2)C1 (stereo not shown),13.89
Cc1ccc(N2CCCC(NCc3c(C)noc3C)C2)nn1 (stereo not shown),17.09
Cc1cccc(C)c1CCNC(=O)N1CCCC2(C1)OCCO2,-1.333
Cc1noc([C@@H](C)NCc2ccc(F)cc2)c1C(=O)O,32.43